For at least one entry, the source does not settle the construct or the ends of the probe. Weaker means in comparison with the reference protein, sequence or condition of that experiment. At least one verdict was read from the data and is not stated in words by the source.
What follows are sequences tested on NSUN4 + MTERF4 (assay: EMSA). Conditions: protein 0-2.56 uM; EMSA with 40 ng RNA and 0-2.56 uM protein; pH and temperature not given; recombinant protein.

Does “AUGUAGCAAAAUAGUGGGAAGAUUUAUAGGUAG [ss16S:1377-1409]” bind?
Result: binds more weakly

Does “CUACCUAAGAACAGCUAAAAGAGCACACCCGUCU [ss16S:1343-1376]” bind?
Result: binds more weakly

Does “CUACCUAAGAACAGCUAAAAGAGCACACCCGUCUAUGUAGCAAAAUAGUGGGAAGAUUUAUAGGUAG [ds16S:1343-1409]” bind?
Result: binds

Does “UUCAAAUUCCUCCCUGUACGAAAGGACAAGAGAAAUAAGGCCUACUUCACAAAGCGCCUUCCCCCG [ds16S:2532-2597]” bind?
Result: binds
